Results taken from paper PMC5972182, “Comparison of a Rat Primary Cell-Based Blood-Brain Barrier Model With Epithelial and Brain Endothelial Cell Lines: Gene Expression and Drug Transport” (Frontiers in Molecular Neuroscience, 2018).

Experiments:
[1] = test system: primary rat brain endothelial cell-based BBB model (EPA)
in vitro [2] = conditions: Wistar, rat
in vitro [3] = conditions: human, Caco-2

Penetration in the presence of choline and carnitine [1]: inhibited significantly | Papp (in vitro [2]): 63 ± 13 ×10⁻⁶ cm/s | efflux ratio (in vitro [3]): 1.78
SMILES: COc1cc2c(cc1OC)C(=O)C(CC1CCN(Cc3ccccc3)CC1)C2 (stereo not drawn) [donepezil]
